In brackets after ≈: the same amount, converted by molar mass.
Legend:
[1] = molecular target: Voltage-gated inwardly rectifying potassium channel KCNH2 (Homo sapiens, UniProt Q12809)
physchem [2] = conditions: buffer, pH 2.2
physchem [3] = conditions: buffer, pH 4.5
physchem [4] = conditions: buffer, pH 6.8

By UniProt entry, the sequences of proteins in these tests, tags left out. Where a name states a change or a piece, a line headed by the entry shows the natural chain unless it says otherwise.
UniProt Q12809: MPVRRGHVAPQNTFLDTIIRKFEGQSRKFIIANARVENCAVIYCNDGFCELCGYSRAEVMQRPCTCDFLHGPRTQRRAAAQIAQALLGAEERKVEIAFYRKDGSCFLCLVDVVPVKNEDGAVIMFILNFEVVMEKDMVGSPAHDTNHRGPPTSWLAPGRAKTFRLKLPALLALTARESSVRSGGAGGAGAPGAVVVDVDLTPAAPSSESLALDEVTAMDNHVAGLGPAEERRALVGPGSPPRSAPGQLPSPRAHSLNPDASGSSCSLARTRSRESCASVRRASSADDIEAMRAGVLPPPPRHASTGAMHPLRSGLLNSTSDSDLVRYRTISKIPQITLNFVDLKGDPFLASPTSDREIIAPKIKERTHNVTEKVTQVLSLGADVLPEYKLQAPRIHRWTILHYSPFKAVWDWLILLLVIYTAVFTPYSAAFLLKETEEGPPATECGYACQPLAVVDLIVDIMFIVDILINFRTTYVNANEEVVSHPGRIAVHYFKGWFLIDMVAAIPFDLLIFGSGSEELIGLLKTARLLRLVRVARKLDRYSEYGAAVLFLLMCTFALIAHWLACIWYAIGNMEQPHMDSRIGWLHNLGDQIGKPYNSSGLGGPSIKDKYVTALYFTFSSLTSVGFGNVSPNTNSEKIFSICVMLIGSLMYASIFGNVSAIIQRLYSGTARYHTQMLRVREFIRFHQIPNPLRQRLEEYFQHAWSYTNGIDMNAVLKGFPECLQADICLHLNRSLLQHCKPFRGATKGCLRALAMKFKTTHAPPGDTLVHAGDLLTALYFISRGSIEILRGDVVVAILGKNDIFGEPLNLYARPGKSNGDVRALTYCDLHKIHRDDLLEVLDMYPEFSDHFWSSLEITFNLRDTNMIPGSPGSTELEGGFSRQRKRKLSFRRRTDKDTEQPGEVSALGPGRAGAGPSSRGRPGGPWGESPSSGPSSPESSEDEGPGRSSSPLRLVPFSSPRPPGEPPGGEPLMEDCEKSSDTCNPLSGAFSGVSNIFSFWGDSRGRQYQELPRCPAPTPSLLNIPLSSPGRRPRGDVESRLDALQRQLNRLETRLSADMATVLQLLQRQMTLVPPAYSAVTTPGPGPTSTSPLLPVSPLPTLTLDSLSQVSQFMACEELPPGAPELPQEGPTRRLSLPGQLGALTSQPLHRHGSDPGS

| Compound | IC50 [1] | solubility at 24 h (physchem [2]) | solubility at 24 h (physchem [3]) | solubility at 24 h (physchem [4]) |
| --- | --- | --- | --- | --- |
| CC(C)(C)OC(=O)N1CCCC(COC(=O)N2C[C@@H]3[C@@H](CNC(=O)c4ccc5[nH]c(=O)oc5c4)[C@@H]3C2)C1 (stereo partly drawn) | > 10 µM | 48 µg/mL (≈ 93.3 µM) | 36 µg/mL (≈ 70 µM) | 25 µg/mL (≈ 48.6 µM) |
| N#Cc1cc(COC(=O)N2C[C@@H]3[C@@H](CNC(=O)NCCCc4cnn[nH]4)[C@@H]3C2)cc(C(=O)OC(F)(F)F)c1 | > 10 µM | 75 µg/mL (≈ 140 µM) | 70 µg/mL (≈ 131 µM) | 66 µg/mL (≈ 123 µM) |

From ChEMBL document CHEMBL4138254 (ACS Med Chem Lett, 2017)
